Results on 3 molecules are retold here after PMC13598120.

Protein sequences, listed by entry. Tags and fused reporters are not part of them.
UniProt Q9H4L4: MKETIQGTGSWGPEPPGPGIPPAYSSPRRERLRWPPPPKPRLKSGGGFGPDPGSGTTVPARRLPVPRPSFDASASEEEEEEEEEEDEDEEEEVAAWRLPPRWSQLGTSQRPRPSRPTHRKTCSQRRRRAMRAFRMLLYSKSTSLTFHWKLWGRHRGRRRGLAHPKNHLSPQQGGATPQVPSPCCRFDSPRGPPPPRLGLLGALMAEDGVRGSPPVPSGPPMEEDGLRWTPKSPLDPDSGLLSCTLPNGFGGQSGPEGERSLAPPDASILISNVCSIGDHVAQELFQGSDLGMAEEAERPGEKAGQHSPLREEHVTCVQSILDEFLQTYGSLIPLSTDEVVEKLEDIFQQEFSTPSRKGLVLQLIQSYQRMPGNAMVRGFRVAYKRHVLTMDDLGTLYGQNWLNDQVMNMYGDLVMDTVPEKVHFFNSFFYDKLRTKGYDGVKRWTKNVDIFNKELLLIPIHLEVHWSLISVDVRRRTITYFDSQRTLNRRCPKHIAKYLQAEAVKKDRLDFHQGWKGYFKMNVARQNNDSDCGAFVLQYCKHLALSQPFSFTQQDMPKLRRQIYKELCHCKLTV
UniProt P54132: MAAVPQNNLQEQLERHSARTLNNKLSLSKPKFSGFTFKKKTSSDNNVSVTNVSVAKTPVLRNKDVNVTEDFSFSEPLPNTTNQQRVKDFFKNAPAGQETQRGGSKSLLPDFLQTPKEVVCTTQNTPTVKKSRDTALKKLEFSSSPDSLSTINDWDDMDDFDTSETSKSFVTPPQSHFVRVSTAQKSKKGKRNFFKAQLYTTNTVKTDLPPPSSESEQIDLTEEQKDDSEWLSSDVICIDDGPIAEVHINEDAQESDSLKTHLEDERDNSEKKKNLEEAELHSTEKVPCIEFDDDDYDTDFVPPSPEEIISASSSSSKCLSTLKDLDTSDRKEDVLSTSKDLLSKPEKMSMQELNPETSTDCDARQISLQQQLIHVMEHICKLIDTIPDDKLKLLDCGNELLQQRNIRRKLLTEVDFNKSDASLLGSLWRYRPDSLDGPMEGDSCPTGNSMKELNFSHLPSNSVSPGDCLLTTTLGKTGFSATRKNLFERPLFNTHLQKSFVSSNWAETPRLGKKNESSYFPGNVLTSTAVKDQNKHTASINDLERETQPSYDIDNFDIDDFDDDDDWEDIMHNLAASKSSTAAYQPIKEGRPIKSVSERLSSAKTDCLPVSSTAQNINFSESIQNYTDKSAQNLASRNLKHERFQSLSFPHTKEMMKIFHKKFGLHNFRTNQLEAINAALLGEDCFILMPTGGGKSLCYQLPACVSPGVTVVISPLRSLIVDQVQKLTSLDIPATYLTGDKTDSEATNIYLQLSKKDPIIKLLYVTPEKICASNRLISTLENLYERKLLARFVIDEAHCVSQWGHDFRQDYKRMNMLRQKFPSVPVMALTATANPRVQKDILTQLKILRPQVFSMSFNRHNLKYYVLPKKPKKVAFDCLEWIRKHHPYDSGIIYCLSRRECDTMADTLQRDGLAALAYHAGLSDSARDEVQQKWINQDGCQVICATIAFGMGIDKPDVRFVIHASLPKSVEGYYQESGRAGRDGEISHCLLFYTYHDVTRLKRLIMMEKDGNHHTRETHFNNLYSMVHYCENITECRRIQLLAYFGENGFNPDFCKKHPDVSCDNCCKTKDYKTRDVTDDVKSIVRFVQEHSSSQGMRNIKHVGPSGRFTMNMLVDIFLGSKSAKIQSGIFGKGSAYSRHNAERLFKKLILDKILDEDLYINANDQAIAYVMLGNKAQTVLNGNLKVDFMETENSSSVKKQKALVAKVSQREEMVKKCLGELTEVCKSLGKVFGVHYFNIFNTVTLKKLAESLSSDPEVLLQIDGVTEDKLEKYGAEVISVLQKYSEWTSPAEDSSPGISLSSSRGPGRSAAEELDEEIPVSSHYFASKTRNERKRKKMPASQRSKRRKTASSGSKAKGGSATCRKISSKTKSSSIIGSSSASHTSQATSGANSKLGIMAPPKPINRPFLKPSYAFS

No constants are given. Whether binding was seen depends on the method and setting. Binding seen in cells or lysates may run through a third protein. Some results given as binding are weak or reduced against the parent protein; the word gives no strength. For some assays here: Sequences can lack the tags named with a protein.

Experiment [1] has as its target T1, Flag-tagged GNL3 (Flag-GNL3), wild type (human) (UniProt Q9BVP2).
T1 sequence: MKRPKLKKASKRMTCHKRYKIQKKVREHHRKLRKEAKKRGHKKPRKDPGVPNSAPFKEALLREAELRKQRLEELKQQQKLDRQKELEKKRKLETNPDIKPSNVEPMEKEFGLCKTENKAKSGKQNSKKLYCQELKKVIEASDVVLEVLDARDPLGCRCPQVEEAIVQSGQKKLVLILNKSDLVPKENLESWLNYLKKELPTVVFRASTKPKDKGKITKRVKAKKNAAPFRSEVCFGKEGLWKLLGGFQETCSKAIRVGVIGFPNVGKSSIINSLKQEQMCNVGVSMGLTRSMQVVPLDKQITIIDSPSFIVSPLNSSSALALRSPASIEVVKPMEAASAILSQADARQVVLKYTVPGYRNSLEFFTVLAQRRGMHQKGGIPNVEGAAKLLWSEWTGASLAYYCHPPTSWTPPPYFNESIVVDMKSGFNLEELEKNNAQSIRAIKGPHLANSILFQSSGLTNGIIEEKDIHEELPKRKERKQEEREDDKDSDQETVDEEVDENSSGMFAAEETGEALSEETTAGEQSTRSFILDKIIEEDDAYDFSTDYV
The experiment in a line: co-IP; anti-Flag (M2) agarose beads, 4 C, 4 h, on lysates of transfected U2OS cells; NP40 lysis buffer (50 mM Tris-HCl pH 8.0, 0.5% NP-40, 1 mM EDTA, 150 mM NaCl) with 20 mM NEM and 5 mM IAA; DMSO or 20 uM ETO; USP36 siRNA in one experiment; immunoblot.

The target of experiment [2] is Flag-SENP3 (UniProt Q9H4L4). The experiment in a line: co-IP; 293 cells transfected with the Flag-tagged protein; co-IP using anti-Flag antibody; immunoblot.
The target in experiment [3] is Flag-BLM, wild type (UniProt P54132). Briefly: proximity ligation; Duolink PLA on fixed U2OS cells transfected with Flag-GNL3 or Flag-BLM (WT or mutants); DMSO or 20 uM ETO for 2 h; in one experiment with knock-down of endogenous GNL3 and siRNA-resistant Flag-GNL3.
Experiment [4] shares this target. The experiment in a line: co-IP; anti-Flag (M2) agarose beads, 4 C, 4 h, on lysates of transfected U2OS cells; NP40 lysis buffer (50 mM Tris-HCl pH 8.0, 0.5% NP-40, 1 mM EDTA, 150 mM NaCl) with 20 mM NEM and 5 mM IAA; DMSO or 20 uM ETO; USP36 siRNA in one experiment; immunoblot.
Experiment [5] addresses Flag-SENP3 (UniProt Q9H4L4). The experiment in a line: co-IP; co-IP with RNase treatment (Supplementary Figs. S8b, S9a, b; legends not shown).

B1: DNA2 (DNA replication helicase/nuclease 2), endogenous (protein, UniProt P51530 1-1060)
chain: MEQLNELELLMEKSFWEEAELPAELFQKKVVASFPRTVLSTGMDNRYLVLAVNTVQNKEGNCEKRLVITASQSLENKELCILRNDWCSVPVEPGDIIHLEGDCTSDTWIIDKDFGYLILYPDMLISGTSIASSIRCMRRAVLSETFRSSDPATRQMLIGTVLHEVFQKAINNSFAPEKLQELAFQTIQEIRHLKEMYRLNLSQDEIKQEVEDYLPSFCKWAGDFMHKNTSTDFPQMQLSLPSDNSKDNSTCNIEVVKPMDIEESIWSPRFGLKGKIDVTVGVKIHRGYKTKYKIMPLELKTGKESNSIEHRSQVVLYTLLSQERRADPEAGLLLYLKTGQMYPVPANHLDKRELLKLRNQMAFSLFHRISKSATRQKTQLASLPQIIEEEKTCKYCSQIGNCALYSRAVEQQMDCSSVPIVMLPKIEEETQHLKQTHLEYFSLWCLMLTLESQSKDNKKNHQNIWLMPASEMEKSGSCIGNLIRMEHVKIVCDGQYLHNFQCKHGAIPVTNLMAGDRVIVSGEERSLFALSRGYVKEINMTTVTCLLDRNLSVLPESTLFRLDQEEKNCDIDTPLGNLSKLMENTFVSKKLRDLIIDFREPQFISYLSSVLPHDAKDTVACILKGLNKPQRQAMKKVLLSKDYTLIVGMPGTGKTTTICTLVRILYACGFSVLLTSYTHSAVDNILLKLAKFKIGFLRLGQIQKVHPAIQQFTEQEICRSKSIKSLALLEELYNSQLIVATTCMGINHPIFSRKIFDFCIVDEASQISQPICLGPLFFSRRFVLVGDHQQLPPLVLNREARALGMSESLFKRLEQNKSAVVQLTVQYRMNSKIMSLSNKLTYEGKLECGSDKVANAVINLRHFKDVKLELEFYADYSDNPWLMGVFEPNNPVCFLNTDKVPAPEQVEKGGVSNVTEAKLIVFLTSIFVKAGCSPSDIGIIAPYRQQLKIINDLLARSIGMVEVNTVDKYQGRDKSIVLVSFVRSNKDGTVGELLKDWRRLNVAITRAKHKLILLGCVPSLNCYPPLEKLLNHLNSEKLIIDLPSREHESLCHILGDFQRE
For B1, the binding entry in experiment [1] is listed as “binds”.

B2: GNL3, endogenous (protein, UniProt Q9BVP2 1-549)
chain: T1 sequence
With B2, the binding result in the experiment with Flag-SENP3 [2] is listed as “binds”; with Flag-BLM, wild type [3] it was “binds”; with Flag-BLM, wild type [4], “binds”.

B3: GNL3 (partner in supplementary experiments whose legends were not shown) (protein, UniProt Q9BVP2 1-549)
chain: T1 sequence
As for B3, the binding entry with Flag-SENP3 [5] is reported as “binds”.
